# From paper PMC7737621 (Journal of medicinal chemistry, 2020)
# Key:
# in vivo = conditions: male, Long-Evans, rat, ip, 10 mg/kg
# physchem = conditions: pH 7.4
SMILES,Cmax at 8 h (in vivo) [ng/mL],solubility kinetic (physchem) [µM]
"CC[C@H](C)COc1ccc([C@H](Cc2nnc(N)o2)NC(=O)[C@@H](C)c2ccccc2)cc1.Cl [Compound 90, (2S)-N-[(1S)-2-(5-Amino-1,3,4-oxadiazol-2-yl)-1-{4-[(2S)-2-methylbutoxy]phenyl}ethyl]-2-phenylpropanamide Hydrochloride]",270,–
"CCCC(C)COc1ccc([C@H](CN)NC(=O)[C@@H](C)c2ccccc2)cc1 (stereo partly drawn) [Compound 1, (2S)-N-((1R)-2-amino-1-(4-(2-methylpentyloxy)-phenyl)ethyl)-2-phenylpropanamide]",–,< 1
